Test results as given in the supplement of paper PMC7661543.
Differences between knockout arms are mostly noise.

System: BT-20
Assay: relative cell number vs DMSO control (72 h) (% of DMSO); higher = less growth inhibition (more cells)
Method: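 QMAP-Seq: a pool of 5 breast cancer cell lines (ZR-75-1, SKBR3, HCC-38, MDA-MB-231, BT-20), each carrying 12 doxycycline-inducible Cas9 sgRNA perturbations (11 knockouts plus non-targeting sgNT), was treated with compounds for 72 h at four 10-fold doses (10 nM-10 uM or 1 nM-1 uM range). Barcodes were amplified and sequenced, and cell number was interpolated from 293T spike-in standard curves. The result is expressed as % of the median of DMSO wells. Two biological replicates.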

Cc1sc2c(c1C)C(c1ccc(Cl)cc1)=N[C@@H](CC(=O)OC(C)(C)C)c1nnc(C)n1-2 [(+)-JQ1]
Conditions	relative cell number
sgRNA knockout: sgATF3, 10 nM	99.9
sgRNA knockout: sgATF3, 100 nM	113.9
sgRNA knockout: sgATF3, 1000 nM	98.4
sgRNA knockout: sgATF3, 10000 nM	76.2
sgRNA knockout: sgATF4, 10 nM	103
sgRNA knockout: sgATF4, 100 nM	118
sgRNA knockout: sgATF4, 1000 nM	105
sgRNA knockout: sgATF4, 10000 nM	94.73
sgRNA knockout: sgATF6, 10 nM	86.4
sgRNA knockout: sgATF6, 100 nM	121
sgRNA knockout: sgATF6, 1000 nM	97.6
sgRNA knockout: sgATF6, 10000 nM	79.6
sgRNA knockout: sgATG7, 10 nM	108
sgRNA knockout: sgATG7, 100 nM	116
sgRNA knockout: sgATG7, 1000 nM	102
sgRNA knockout: sgATG7, 10000 nM	90.5
sgRNA knockout: sgERN1, 10 nM	96.1
sgRNA knockout: sgERN1, 100 nM	119
sgRNA knockout: sgERN1, 1000 nM	102.9
sgRNA knockout: sgERN1, 10000 nM	82.2
sgRNA knockout: sgHSF1, 10 nM	105
sgRNA knockout: sgHSF1, 100 nM	115
sgRNA knockout: sgHSF1, 1000 nM	107
sgRNA knockout: sgHSF1, 10000 nM	90.8
sgRNA knockout: sgHSF2, 10 nM	83.6
sgRNA knockout: sgHSF2, 100 nM	105
sgRNA knockout: sgHSF2, 1000 nM	91.6
sgRNA knockout: sgHSF2, 10000 nM	87.8
sgRNA knockout: sgKEAP1, 10 nM	101
sgRNA knockout: sgKEAP1, 100 nM	118
sgRNA knockout: sgKEAP1, 1000 nM	104
sgRNA knockout: sgKEAP1, 10000 nM	88.4
sgRNA knockout: sgNFE2L2, 10 nM	92.7
sgRNA knockout: sgNFE2L2, 100 nM	123
sgRNA knockout: sgNFE2L2, 1000 nM	97.4
sgRNA knockout: sgNFE2L2, 10000 nM	76.2
sgRNA knockout: sgSLC35F2, 10 nM	99.3
sgRNA knockout: sgSLC35F2, 100 nM	124
sgRNA knockout: sgSLC35F2, 1000 nM	104
sgRNA knockout: sgSLC35F2, 10000 nM	74
sgRNA knockout: sgXBP1, 10 nM	106
sgRNA knockout: sgXBP1, 100 nM	111
sgRNA knockout: sgXBP1, 1000 nM	102
sgRNA knockout: sgXBP1, 10000 nM	86.1

COc1cc2c(Oc3ccc4[nH]c(C)cc4c3F)ncnc2cc1OCCCN1CCCC1 [Cediranib]
Conditions	relative cell number
sgRNA knockout: sgATF3, 10 nM	95.3
sgRNA knockout: sgATF3, 100 nM	104
sgRNA knockout: sgATF3, 1000 nM	101
sgRNA knockout: sgATF3, 10000 nM	28.7
sgRNA knockout: sgATF4, 10 nM	111
sgRNA knockout: sgATF4, 100 nM	103
sgRNA knockout: sgATF4, 1000 nM	104
sgRNA knockout: sgATF4, 10000 nM	25.5
sgRNA knockout: sgATF6, 10 nM	114
sgRNA knockout: sgATF6, 100 nM	111
sgRNA knockout: sgATF6, 1000 nM	91.3
sgRNA knockout: sgATF6, 10000 nM	20.8
sgRNA knockout: sgATG7, 10 nM	103
sgRNA knockout: sgATG7, 100 nM	105
sgRNA knockout: sgATG7, 1000 nM	103
sgRNA knockout: sgATG7, 10000 nM	26.8
sgRNA knockout: sgERN1, 10 nM	104
sgRNA knockout: sgERN1, 100 nM	91.4
sgRNA knockout: sgERN1, 1000 nM	99.9
sgRNA knockout: sgERN1, 10000 nM	22.2
sgRNA knockout: sgHSF1, 10 nM	93
sgRNA knockout: sgHSF1, 100 nM	93.3
sgRNA knockout: sgHSF1, 1000 nM	99.6
sgRNA knockout: sgHSF1, 10000 nM	24.5
sgRNA knockout: sgHSF2, 10 nM	115
sgRNA knockout: sgHSF2, 100 nM	117
sgRNA knockout: sgHSF2, 1000 nM	109
sgRNA knockout: sgHSF2, 10000 nM	28.2
sgRNA knockout: sgKEAP1, 10 nM	101
sgRNA knockout: sgKEAP1, 100 nM	89.8
sgRNA knockout: sgKEAP1, 1000 nM	97.2
sgRNA knockout: sgKEAP1, 10000 nM	28.4
sgRNA knockout: sgNFE2L2, 10 nM	135
sgRNA knockout: sgNFE2L2, 100 nM	117
sgRNA knockout: sgNFE2L2, 1000 nM	112
sgRNA knockout: sgNFE2L2, 10000 nM	25.3
sgRNA knockout: sgSLC35F2, 10 nM	114
sgRNA knockout: sgSLC35F2, 100 nM	106
sgRNA knockout: sgSLC35F2, 1000 nM	98.7
sgRNA knockout: sgSLC35F2, 10000 nM	30.2
sgRNA knockout: sgXBP1, 10 nM	121
sgRNA knockout: sgXBP1, 100 nM	118
sgRNA knockout: sgXBP1, 1000 nM	94.2
sgRNA knockout: sgXBP1, 10000 nM	30.8

CC(=O)O[C@H]1C(=O)[C@@]2(C)[C@H]([C@H](OC(=O)c3ccccc3)[C@]3(O)C[C@H](OC(=O)[C@H](O)[C@@H](NC(=O)c4ccccc4)c4ccccc4)C(C)=C1C3(C)C)[C@]1(OC(C)=O)CO[C@@H]1C[C@@H]2O [Paclitaxel]
Conditions	relative cell number
sgRNA knockout: sgATF3, 10 nM	57
sgRNA knockout: sgATF3, 100 nM	19.5
sgRNA knockout: sgATF3, 1000 nM	26.2
sgRNA knockout: sgATF3, 10000 nM	28.4
sgRNA knockout: sgATF4, 10 nM	44.6
sgRNA knockout: sgATF4, 100 nM	25.1
sgRNA knockout: sgATF4, 1000 nM	26.8
sgRNA knockout: sgATF4, 10000 nM	36.1
sgRNA knockout: sgATF6, 10 nM	40.7
sgRNA knockout: sgATF6, 100 nM	24.4
sgRNA knockout: sgATF6, 1000 nM	30.9
sgRNA knockout: sgATF6, 10000 nM	37.2
sgRNA knockout: sgATG7, 10 nM	46.6
sgRNA knockout: sgATG7, 100 nM	18.9
sgRNA knockout: sgATG7, 1000 nM	26.6
sgRNA knockout: sgATG7, 10000 nM	37
sgRNA knockout: sgERN1, 10 nM	47.9
sgRNA knockout: sgERN1, 100 nM	23.7
sgRNA knockout: sgERN1, 1000 nM	30.4
sgRNA knockout: sgERN1, 10000 nM	35.8
sgRNA knockout: sgHSF1, 10 nM	51.5
sgRNA knockout: sgHSF1, 100 nM	21.6
sgRNA knockout: sgHSF1, 1000 nM	23.1
sgRNA knockout: sgHSF1, 10000 nM	32.7
sgRNA knockout: sgHSF2, 10 nM	57.7
sgRNA knockout: sgHSF2, 100 nM	20.8
sgRNA knockout: sgHSF2, 1000 nM	28.4
sgRNA knockout: sgHSF2, 10000 nM	35.1
sgRNA knockout: sgKEAP1, 10 nM	52.2
sgRNA knockout: sgKEAP1, 100 nM	20.9
sgRNA knockout: sgKEAP1, 1000 nM	22.1
sgRNA knockout: sgKEAP1, 10000 nM	30.5
sgRNA knockout: sgNFE2L2, 10 nM	55.3
sgRNA knockout: sgNFE2L2, 100 nM	16.5
sgRNA knockout: sgNFE2L2, 1000 nM	29.7
sgRNA knockout: sgNFE2L2, 10000 nM	30.8
sgRNA knockout: sgSLC35F2, 10 nM	55.1
sgRNA knockout: sgSLC35F2, 100 nM	25.8
sgRNA knockout: sgSLC35F2, 1000 nM	21.2
sgRNA knockout: sgSLC35F2, 10000 nM	41.8
sgRNA knockout: sgXBP1, 10 nM	54.7
sgRNA knockout: sgXBP1, 100 nM	21.1
sgRNA knockout: sgXBP1, 1000 nM	26.4
sgRNA knockout: sgXBP1, 10000 nM	33.3
